From patent US7303876B2 (Applera Corporation, priority 2000, dated 2007) come the findings set out here.

This data set deals with Calf thymus genomic DNA. Put plainly: Reversibility of surfactant-nucleic acid precipitate in chaotrope solutions. In kind it is physicochemical. Conditions: 1.6% surfactant, 50 mM MES pH 6.0. More on the design: key: R - DNA precipitate formed in 1.6% cationic surfactant, dissolved after addition of chaotropic solution, but surfactant precipitate did not dissolve; IR - DNA precipitate did not dissolve.

SMILES strings stand for the structures.

Regarding `CCCCCCCCCCCC[N+](C)(C)C.[Br-]` [DTAB, dodecyltrimethylammonium bromide], the “whether the DNA precipitate dissolved after addition of chaotropic solution” value (shortened to “whether the DNA precipitate dissolved”) (5M GuHCl) is recorded as “R”; the “whether the DNA precipitate dissolved” value (5M GuSCN) was “R”; the “whether the DNA precipitate dissolved” value (5M LiBr) is “R”; the “whether the DNA precipitate dissolved” value (5M LiCl) is listed as “R”; the “whether the DNA precipitate dissolved” value (5M LiI) is “R”; the “whether the DNA precipitate dissolved” value (5M NaBr) is “R”. Further, the “whether the DNA precipitate dissolved” value is, setting by setting: (5M NaI) “IR”; (5M NaSCN) “R”.

Take `CCCCCCCCCCCC[N+](C)(C)C.[Cl-]` [DTACl, dodecyltrimethylammonium chloride]: the “whether the DNA precipitate dissolved” value (5M GuHCl) is listed as “R”; the “whether the DNA precipitate dissolved” value (5M GuSCN) is “R”; the “whether the DNA precipitate dissolved” value (5M LiBr) is reported as “R”; the “whether the DNA precipitate dissolved” value (5M LiCl) is given as “R”; the “whether the DNA precipitate dissolved” value (5M LiI) is on record as “R”; the “whether the DNA precipitate dissolved” value (5M NaBr) is listed as “R”. In addition, the “whether the DNA precipitate dissolved” value is, setting by setting: (5M NaI) “R”; (5M NaSCN) “R”.
